Laboratory results reported in the supplement of paper PMC7830784.
Structures can show the parent of a compound that is named as a salt. This is one part of the list. Most values lie within the scatter of the assay; repeated measurements hardly agree.

test system: Brugia pahangi adult female; assay: motility inhibition on day 3 relative to DMSO vehicle; higher = more active; details: 10 µM; 3 days

Row | Compound | motility inhibition on day 3 [%]
1 | CSc1ccc2c(c1)N(CCC1CCCCN1C)c1ccccc1S2 (configuration not stated) [Thioridazine hydrochloride] | 75.7
2 | CCOc1ccc2nc3cc(N)ccc3c(N)c2c1 [ethacridine lactate] | 14.9
3 | CCN(CC)CCNc1ccc(CO)c2sc3ccccc3c(=O)c12 [hycanthone] | 0.929
4 | O=C(COc1ccc(Cl)cc1)N1CCN(Cc2ccc3c(c2)OCO3)CC1 [fipexide hydrochloride] | 11.8
5 | N[C@@H](Cc1ccc(O)cc1)C(=O)O [tyrosine] | 30.8
6 | CN(Cc1cnc2nc(N)nc(N)c2n1)c1ccc(C(=O)N[C@@H](CCC(=O)O)C(=O)O)cc1 [methotrexate] | < 0
7 | Nc1nc(NC2CC2)c2ncn([C@H]3C=C[C@@H](CO)C3)c2n1 [abacavir sulfate] | < 0
8 | C[N+](C)(C)CCOC(=O)CCC(=O)OCC[N+](C)(C)C [Succinylcholine chloride] | < 0
9 | CC(Cc1ccc(O)c(O)c1)(NN)C(=O)O (stereo not drawn) [S-(-)-Carbidopa] | 35.8
10 | Cc1ccsc1/C=C/C1=NCCCN1C [morantel citrate] | 8
11 | CCCCCCCCCCCCCCCCOP(=O)([O-])OCC[N+](C)(C)C [miltefosine] | < 0
12 | CN(C)c1ccc(O)c2c1C[C@H]1C[C@H]3[C@H](N(C)C)C(O)=C(C(N)=O)C(=O)[C@@]3(O)C(O)=C1C2=O [minocycline hydrochloride] | 14.6
13 | COc1cccc(OC)c1C(=O)N[C@@H]1C(=O)N2[C@@H]1SC(C)(C)[C@@H]2C(=O)O [methicillin sodium] | 42.9
14 | Cc1ccc(S(=O)(=O)NC(=O)NN2CCCCCC2)cc1 [Tolazamide] | < 0
15 | C[C@]12CC[C@@H]3c4ccc(OS(=O)(=O)O)cc4CC[C@H]3[C@@H]1CCC2=O [estropipate] | 4.27
16 | CCOC(=O)c1ccc(N)cc1 [benzocaine] | < 0
17 | CCN(CC)CCOC(=O)C(c1ccccc1)c1ccccc1 [adiphenine hydrochloride] | 11.2
18 | CC(C)(C)CC(C)(C)c1ccc(O)c(Cc2ccc(Cl)cc2Cl)c1 [clofoctol] | < 0
19 | O=c1[nH]c(=O)c2ccccc2o1 [carsalam] | 6.98
20 | Nc1ccn([C@@H]2O[C@H](CO)[C@@H](O)[C@@H]2O)c(=O)n1 [cytarabine] | < 0
21 | COc1ccnc(C[S+]([O-])c2nc3cc(OC(F)F)ccc3[nH]2)c1OC (configuration not stated) [pantoprazole] | 4.43
22 | CO[C@H]1C[C@H](O[C@H]2[C@H](C)[C@@H](O[C@@H]3O[C@H](C)C[C@H](N(C)C)[C@H]3O)[C@@H](C)C[C@@]3(CO3)C(=O)[C@H](C)[C@@H](O)[C@@H](C)[C@@H](C)OC(=O)[C@@H]2C)O[C@@H](C)[C@@H]1O [oleandomycin phosphate] | < 0
23 | O=C(CCN1CCC(c2ccccc2)C1)c1ccc2c(c1)OCCO2 (configuration not stated) [Proroxan] | 65.2
24 | Nc1ccc(S(=O)(=O)Nc2ccccn2)cc1 [sulfapyridine] | < 0

Row | Compound | motility inhibition on day 3 [%]
25 | CN(C)CCCN1c2ccccc2Sc2ccc(Cl)cc21 [Chlorpromazine hydrochloride] | 15.7
26 | O=c1ccc2ccccc2o1 [coumarin] | 42.6
27 | COc1cc([C@@H]2c3cc4c(cc3[C@@H](O[C@@H]3O[C@@H]5CO[C@@H](c6cccs6)O[C@H]5[C@H](O)[C@H]3O)[C@H]3COC(=O)[C@H]23)OCO4)cc(OC)c1O [teniposide] | 4
28 | O=c1[nH]cnc2c1ncn2[C@@H]1O[C@H](CO)[C@@H](O)[C@H]1O [inosine] | 17.3
29 | CCOc1ccccc1OC(c1ccccc1)C1CNCCO1 (configuration not stated) [reboxetine mesylate] | < 0
30 | Cc1nc(Nc2ncc(C(=O)Nc3c(C)cccc3Cl)s2)cc(N2CCN(CCO)CC2)n1 [dasatinib] | 29.1
31 | CCN(CCO)CCCC(C)Nc1ccnc2cc(Cl)ccc12 (configuration not stated) [hydroxychloroquine sulfate] | 5.76
32 | COc1ccc(CC2c3cc(OC)c(OC)cc3CC[N+]2(C)CCC(=O)OCCCCCOC(=O)CC[N+]2(C)CCc3cc(OC)c(OC)cc3C2Cc2ccc(OC)c(OC)c2)cc1OC (configuration not stated) [atracurium besylate] | 3.42
33 | CC(=O)[C@H]1CC[C@H]2[C@@H]3CC=C4C[C@@H](O)CC[C@]4(C)[C@H]3CC[C@]12C [pregnenolone] | 66.2
34 | CN(C)c1ccc(C(=C2C=CC(=[N+](C)C)C=C2)c2ccc(N(C)C)cc2)cc1 [gentian violet] | 93.8
35 | Cc1nc(-c2ccc(OCC(C)C)c(C#N)c2)sc1C(=O)O [febuxostat] | < 0
36 | CC(C)(C)c1ccc(C(O)CCCN2CCC(C(O)(c3ccccc3)c3ccccc3)CC2)cc1 (configuration not stated) [terfenadine] | 9.45
37 | CC(COc1ccccc1)NC(C)C(O)c1ccc(O)cc1 (configuration not stated) [isoxsuprine hydrochloride] | 28.3
38 | CO/N=C1\C[C@]2(C[C@@H]3C[C@@H](C/C=C(\C)C[C@@H](C)/C=C/C=C4\CO[C@@H]5[C@H](O)C(C)=C[C@@H](C(=O)O3)[C@]45O)O2)O[C@H](/C(C)=C/C(C)C)[C@H]1C [moxidectin] | 58.3
39 | CCCCN1CCCCC1C(=O)Nc1c(C)cccc1C (configuration not stated) [bupivacaine hydrochloride] | < 0
40 | CCOC(=O)NNc1nncc2ccccc12 [todralazine hydrochloride] | 7.8
41 | CCN(CC)C(=O)c1ccc(O)c(OC)c1 [ethamivan] | 2.1
42 | O=C(c1ccc(F)cc1)C1CCN(CCn2c(=O)[nH]c3ccccc3c2=O)CC1 [Ketanserin tartrate] | < 0
43 | CC(=O)[C@@]1(O)CC[C@H]2[C@@H]3CCC4=CC(=O)CC[C@]4(C)[C@H]3CC[C@@]21C [hydroxyprogesterone] | < 0
44 | O=C1NCC2(CCN(CCc3ccccc3)CC2)O1 [fenspiride hydrochloride] | 21.9
45 | Clc1ccc2c(c1)CCc1cccnc1C2=C1CCNCC1 [desloratidine] | < 0
46 | CN(C)CCOC(c1ccccc1)c1ccccc1.Cn1c(=O)c2[nH]c(Cl)nc2n(C)c1=O [dimenhydrinate] | < 0
47 | Cc1cc2nc3c(=O)[nH]c(=O)nc-3n(C[C@H](O)[C@H](O)[C@H](O)CO)c2cc1C [riboflavin] | 36.2
48 | CO[C@H]1/C=C/O[C@@]2(C)Oc3c(C)c(O)c4c(O)c(c5c(nc6cc(C)ccn65)c4c3C2=O)NC(=O)/C(C)=C\C=C\[C@H](C)[C@H](O)[C@@H](C)[C@@H](O)[C@@H](C)[C@H](OC(C)=O)[C@@H]1C [rifaximin] | 40.5

Row | Compound | motility inhibition on day 3 [%]
49 | C[C@]12C=CC(=O)N[C@@H]1CC[C@@H]1[C@@H]2CC[C@]2(C)[C@@H](C(=O)Nc3cc(C(F)(F)F)ccc3C(F)(F)F)CC[C@@H]12 [dutasteride] | 7.08
50 | Clc1cccc(Cl)c1NC1=NCCN1 [Clonidine hydrochloride] | 8.12
51 | CC(=O)O[C@]1(C(C)=O)CC[C@H]2[C@@H]3C=C(Cl)C4=CC(=O)CC[C@]4(C)[C@H]3CC[C@@]21C [chlormadinone acetate] | < 0
52 | CCCNC(=O)NS(=O)(=O)c1ccc(Cl)cc1 [Chlorpropamide] | 0.435
53 | CCN(CC)C(C)CN1c2ccccc2Sc2ccccc21 (configuration not stated) [ethopropazine hydrochloride] | 30.2
54 | Cc1cc(O)c(C(=O)N[C@@H](C(=O)N[C@@H]2C(=O)N3C(C(=O)O)=C(CSc4nnnn4C)CS[C@H]23)c2ccc(O)cc2)cn1 [cefpiramide] | 1.04
55 | CC1CC2C3CCC4=CC(=O)C=CC4(C)C3(F)C(O)CC2(C)C1C(=O)CO (configuration not stated) [desoxymetasone] | < 0
56 | CC=CC(=O)N(CC)c1ccccc1C [crotamiton] | 9.71
57 | CC1=C(C)C(=O)C(C(CCCCCC(=O)O)c2ccccc2)=C(C)C1=O (configuration not stated) [seratrodast] | 8.95
58 | Cc1nc2c([nH]1)-c1ccccc1N(C(=O)c1ccc(NC(=O)c3ccccc3-c3ccccc3)cc1)CC2 [Conivaptan Hydrochloride] | < 0
59 | CNCCc1ccccn1 [betahistine hydrochloride] | 15.3
60 | NCCCCCC(=O)O [aminocaproic acid] | 6.53
61 | CN(C)C(=N)NC(=N)N [metformin hydrochloride] | 7.37
62 | Nc1nc2c(ncn2COC(CO)CO)c(=O)[nH]1 [ganciclovir] | 12.7
63 | CCCCCCCCCCCCCCCC(=O)OC[C@H](O)[C@H]1OC(=O)C(O)=C1O [ascorbyl palmitate] | 54.6
64 | Cn1c(=O)c2c(ncn2CC2OCCO2)n(C)c1=O [doxofylline] | < 0
65 | CN(CCCCCCCCCCN(C)C(=O)Oc1cccc([N+](C)(C)C)c1)C(=O)Oc1cccc([N+](C)(C)C)c1 [Demecarium Bromide] | < 0
66 | CC(=O)N(CC(O)CO)c1c(I)c(C(=O)NCC(O)CO)c(I)c(C(=O)NCC(O)CO)c1I (configuration not stated) [iohexol] | 7.94
67 | COC(=O)Nc1nc2cc(Sc3ccccc3)ccc2[nH]1 [fenbendazole] | 38.9
68 | CC(=O)N(CC(O)CO)c1c(I)c(C(=O)NCCO)c(I)c(C(=O)NCC(O)CO)c1I (configuration not stated) [ioxilan] | < 0
69 | CN1CCN(CC(=O)N2c3ccccc3C(=O)Nc3cccnc32)CC1 [Pirenzepine dihydrochloride] | 23.5
70 | C[C@H]1C[C@H]2[C@@H]3CCC4=CC(=O)C=C[C@]4(C)[C@@]3(F)[C@@H](O)C[C@]2(C)[C@@]1(O)C(=O)COP(=O)(O)O [betamethasone sodium phosphate] | 18.2
71 | CCCCC(CC)COC(=O)CC(C(=O)OCC(CC)CCCC)S(=O)(=O)O (configuration not stated) [docusate sodium] | 87.8
72 | CC(=O)OCC1=C(C(=O)O)N2C(=O)[C@@H](NC(=O)CC#N)[C@H]2SC1 [Cefacetrile] | 5.53

A section from further up:
Row | Compound | motility inhibition on day 3 [%]
69 | CN1CCN(CC(=O)N2c3ccccc3C(=O)Nc3cccnc32)CC1 [Pirenzepine dihydrochloride] | 23.5
70 | C[C@H]1C[C@H]2[C@@H]3CCC4=CC(=O)C=C[C@]4(C)[C@@]3(F)[C@@H](O)C[C@]2(C)[C@@]1(O)C(=O)COP(=O)(O)O [betamethasone sodium phosphate] | 18.2
71 | CCCCC(CC)COC(=O)CC(C(=O)OCC(CC)CCCC)S(=O)(=O)O (configuration not stated) [docusate sodium] | 87.8
